Among the data in PubChem BioAssay AID222 (DTP/NCI, 2004) are T/C and survivor count values, retold here.

For the assay, the system named is C57BL/6 mice, intracerebral ependymoblastoma, median survival T/C. Description: NCI In Vivo Anticancer Drug Screen. Data for tumor model Ependymoblastoma (intracerebral) in C57BL/6 mice. The settings on record: T/C endpoint: median survival time, schedule: Q01DX005 (ip), higher T/C = longer survival. Here is the method:
The antitumor activity of compounds was measured in mice bearing transplantable tumors. Survival or tumor size were measured and the results are expressed as the measurement made in the treated group (T) divided by the measurement made in the vehicle treated control group (C). The tumor model used in this assay is Ependymoblastoma (intracerebral) in C57BL/6 mice

The list shows only some results of the screen, not a fair sample: its compounds were picked by chemical class. Not every dose and run of a compound is shown. T/C is the treated group as % of the vehicle group. Some doses have a count of surviving animals in place of a T/C: the source files T/C as zero there, which appears to mark a toxic dose or a test without result, not a measured value. Some survivor counts are full or nearly so, which does not show that the dose was tolerated: the source hardly ever lists a survival T/C far under the control, and the zero likely stands for such cases as well. Survivors were counted at the toxicity check, usually on the fifth day, unless a day is given; later deaths do not show. Schedules are NCI's codes, read here as Q, the interval in days (D) or hours (H), X, the number of doses. Some entries were tested several times; the values are given in rising order. For survival time, this PubChem deposit counts one and a half times the control or more as active, and values a quarter to a half above the control carry no call in these data; other NCI protocols may use other cut-offs. Marks such as (2×) stand for listed records that agree. Some T/C values are followed by the survivors on the day toxicity was checked, most often the fifth; without a count or a note in brackets, all were alive then.

`COc1cc2c(c3oc4cccc(O)c4c(=O)c13)[C@@H]1C=CO[C@@H]1O2`: the T/C reads like this: (dose: 16.0 mg/kg/injection, vehicle: saline with Tween-80) 89 [9 of 10 alive] and 96 % of control; (dose: 32.0 mg/kg/injection, vehicle: saline with Tween-80) 96 and 100 % of control; (dose: 64.0 mg/kg/injection, vehicle: saline with Tween-80) 101 % of control (2×); (dose: 128.0 mg/kg/injection, vehicle: saline with Tween-80) 97 and 100 % of control; (dose: 256.0 mg/kg/injection, vehicle: saline with Tween-80) 96 and 98 % of control.

As to `Cc1[nH]c(=O)[nH]c(=O)c1N(CCCl)CCCl`, the T/C (dose: 0.5 mg/kg/injection, vehicle: suspension in saline) is 110 % of control (2×); the T/C (dose: 1.0 mg/kg/injection, vehicle: suspension in saline) was 124 and 127 % of control; the T/C (dose: 2.0 mg/kg/injection, vehicle: suspension in saline) is 124 and 132 % of control. Besides, the survivor count reads like this: (dose: 4.0 mg/kg/injection, vehicle: suspension in saline) 10 of 10; (dose: 8.0 mg/kg/injection, vehicle: suspension in saline) 4 of 10 and 10 of 10.
